Measurements taken from PubChem BioAssay AID504834 (National Center for Advancing Translational Sciences (NCATS), 2011).
Out of some 320,000 compounds screened, about 22,000 (6.9%) were called active. The shares of active, inactive and inconclusive entries below differ from those in the screen. The call rests on the fitted dose curve; in most records, active means well fitted inhibition curve with a large enough effect; inconclusive means small, poorly fitted or top-dose-only effect, or another doubt; inactive means no such curve, though single readings can be large or run the other way. Potencies of inconclusive entries are doubtful fits and often do not repeat.

assay: Primary qHTS for delayed death inhibitors of the malarial parasite plastid, 96 hour incubation; settings: P. falciparum luciferase reporter growth; series mostly up to 28.7 µM
Summary of the method: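 P. falciparum expressing integrated firefly luciferase grown in erythrocytes (2% hematocrit, 0.05% parasitemia final) with compounds for 96 hours at 37 C, 5% CO2. Growth inhibition read as loss of luminescence after adding luciferase detection reagent.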
On the % scale 0 is the no-effect control and ±100 the full control effect; potency means the concentration at half of the fitted maximal effect.

SMILES	Potency	activity change, negative = inhibition
C=CCn1c(O)c(N=Nc2nc3ccccc3c(=O)n2-c2ccccc2)c2ccccc21	inconclusive: 10.4 µM [inhibitor, single point]	
Cc1nc2sc(C(c3cccc(F)c3)N3CC(C)OC(C)C3)c(O)n2n1 (stereo not given)	inactive	
COc1ccc(CNC(=O)c2sc3nc4c(c(C(F)(F)F)c3c2N)CCC4)cc1	inconclusive: 18.5 µM [inhibitor, single point]	
CC(C)(C)OC(=O)NCCCCCNC(=O)c1[nH]cnc1C(=O)Nc1cccc(Cl)c1	inconclusive: 18.5 µM [inhibitor, single point]	
COc1ccc(-c2nc(SC)n(C)c(=O)c2C#N)cc1OC	inconclusive: 18.5 µM [inhibitor, single point]	
O=C(COc1ccc(Cl)cc1Cl)Nc1c(-c2cccs2)nc2ccccn12	inactive	
c1ccc(-c2nc(NCc3cccnc3)c3oc4ccccc4c3n2)cc1	active: 9.28 µM	
N#CC1=C(N)C(C#N)(C#N)[C@H](c2c(F)cccc2F)[C@H]2CC3(CC=C12)OCCO3	inactive	
O=C(Nc1ccccc1)N(CCN1CCOCC1)Cc1ccccc1F	inactive	
Cc1onc(-c2ccccc2)c1C(=O)Nc1ccc2c(c1)OCO2	inconclusive: 18.5 µM [inhibitor, single point]	
Cc1ccc(C)c(OCc2cc(C(=O)N3CCN(C(=O)c4ccco4)CC3)no2)c1	inactive	
Cc1ccnc(NC(=O)Nc2cccc(F)c2)c1	active: 7.38 µM	
CCc1ccc(S(=O)(=O)NCc2cccs2)cc1	inactive	
Cc1ccn2c(C=O)c(-c3ccc(F)cc3)c(C=O)c2c1	inconclusive: 9.28 µM [inhibitor, single point]	
CCOC(=O)C(C)Oc1cccc2c(=O)n(CC(=O)N3CCc4ccccc43)ccc12 (stereo not given)	inconclusive: 18.5 µM [inhibitor, single point]	
COc1ccc(-c2oc3ccccc3c(=O)c2OC(=O)c2ccc(C)cc2)cc1	inconclusive: 18.5 µM [inhibitor, single point]	
CCOc1ccc(CN2CCNC(=O)C2CC(=O)NCCc2ccccn2)cc1 (stereo not given)	inactive	
COC(=O)c1ccc(NC(=S)NCCc2ccccc2)cc1	inconclusive: 10.4 µM [inhibitor, single point]	
C[C@@H](C(=O)NC1CCCC1)N1C(=O)N2CCc3c([nH]c4ccccc34)[C@@]2(C)C1=O	inactive	
O=C1Nc2ccccc2C1Cc1nc2ccccc2c(=O)n1-c1ccccc1 (stereo not given)	inconclusive: 9.28 µM [inhibitor, single point]	
Cc1cc(C)nc(N(C#N)Cc2cccc([N+](=O)[O-])c2)n1	inactive	
COc1ccc2c(c1OC)C(=O)N1c3ccccc3C(=O)N(c3ccc(F)cc3)C21 (stereo not given)	inconclusive: 11.7 µM [inhibitor, partial curve]	
OCCC1CN(Cc2ccc(C(F)(F)F)cc2)CCN1Cc1ccccc1 (stereo not given)	inconclusive: 13.1 µM [inhibitor, partial curve]	
O=C(CCCn1ncn2c(cc3occc32)c1=O)NCc1ccccc1F	inconclusive: 14.7 µM [inhibitor, single point]	
CN1C(=O)c2ccc(C(=O)Nc3ccc4c(c3)OCO4)cc2C1=O	inactive	

SMILES	Potency	activity change, negative = inhibition
Cc1cccc(NC(=O)CSc2nc3nc4c(cc3c(=O)n2-c2ccccc2)CCCC4)c1	active: 2.94 µM	
Cc1cccc(C)c1N1C(=O)c2cccc([N+](=O)[O-])c2C1=O	inconclusive: 18.5 µM [inhibitor, single point]	
Fc1ccc(Oc2cc(N3CCOCC3)nc(-c3ccccc3)n2)c(F)c1	inconclusive: 18.5 µM [inhibitor, single point]	
Cc1cnc(C(=O)OCC(=O)c2cccc3ccccc23)cn1	inactive	
Cc1onc(-c2c(Cl)cccc2Cl)c1C(=O)Nc1ccc(N2CCOCC2)cc1	inconclusive: 18.5 µM [inhibitor, partial curve, poor fit]	
CCC[C@@H](CN[C@@H](CNC)C(C)C)NCCCCc1ccccc1	active: 11.7 µM	
CNC(=S)Nc1cccc2[nH]ncc12	inactive	
c1ccc(-c2nnc(-c3ccccc3)nn2)cc1	inconclusive: 11.7 µM [inhibitor, single point]	
Clc1c(-c2nnc3n2CCCCC3)sc2ccccc12	inconclusive: 5.86 µM [inhibitor, partial curve, poor fit]	
O=C(CCCSc1nc(-c2ccco2)cc(C(F)(F)F)n1)NCC1CCCO1 (stereo not given)	inactive	
CC(=O)c1ccccc1NC(=O)COC(=O)C1=NN(c2ccccc2)C(=O)CC1	inactive	
Cc1ccc(CN2CCN(/N=C/C(Br)=C\c3ccccc3)CC2)cc1	inactive	
Cc1nnsc1-c1c(C(=O)Oc2ccccc2)c(C)nn1-c1ccccc1	active: 13.1 µM	
CC(=O)N1CCC(N(CCN2CCOCC2)C(=S)Nc2ccccc2C)CC1	inconclusive: 18.5 µM [inhibitor, single point]	
CC1=NN(C(C#N)c2ccccc2)C(C)(C)C1 (stereo not given)	inactive	
COc1ccc(NC(=O)COc2ccc(C)c(C)c2)cc1S(=O)(=O)N1CCCCC1	inconclusive: 10.4 µM [inhibitor, single point]	
Cc1[nH]nc(SCC(=O)N2CCOCC2)c1[N+](=O)[O-]		inactive: -12.5% [at 1.15 µM]
COc1cc(C2C(C(N)=O)=C(C)Nc3nc(CCCO)nn32)cc(OC)c1OC (stereo not given)	inconclusive: 10.4 µM [inhibitor, single point]	
COn1c(SCC(N)=O)nc2ccccc2c1=O	inconclusive: 16.5 µM [inhibitor, single point]	
COC(=O)c1c(NC(C)=O)sc2c1CCN(Cc1ccccc1)C2	inactive	
COc1ccc(F)c(C2C(C#N)=C(N)Oc3n[nH]c(C(C)(C)C)c32)c1 (stereo not given)	inconclusive: 9.28 µM [inhibitor, single point]	
CC(C)c1ccc(C2NC(=S)NC3=C2C(=O)CC(C)(C)C3)cc1 (stereo not given)	inactive	
COCCNC(=O)c1c(N)n(CCC(C)C)c2nc3ccccc3nc12	inconclusive: 10.4 µM [inhibitor, single point]	
O=S1(=O)CCOC[C@H](CC2CCCCC2)N1Cc1ccc(F)cc1	inconclusive: 18.5 µM [inhibitor, single point]	
COc1ccc(OC)c(CNC(=O)C2CCN(S(=O)(=O)N3CCCC3)CC2)c1	inconclusive: 0.0738 µM [inhibitor, full curve, poor fit]	

SMILES	Potency	activity change, negative = inhibition
CCOC(=O)/C(C(=O)Nc1ccccc1Br)=C1/NC(C)(C)Cc2ccccc21	inconclusive: 11.7 µM [inhibitor, single point]	
CCOc1ccc(-n2c(N)c(C(=O)NCc3ccco3)sc2=S)cc1	inconclusive: 0.0037 µM [inhibitor, full curve, poor fit]	
COc1ccc(OC2CCN(S(=O)(=O)c3ccccc3)CC2)cc1	inactive	
Cc1ccccc1NC(=O)NCCCN1CCN(C)CC1	inconclusive: 9.28 µM [inhibitor, partial curve, poor fit]	
COc1ccc(CCC(C)N2CCC(Oc3ccc(C(=O)N4CCCC4)cc3)CC2)cc1 (stereo not given)	inconclusive: 18.5 µM [inhibitor, single point]	
Cc1ccccc1C(=O)Nc1c2c(nc3ccccc13)CCCC2	inconclusive: 16.5 µM [inhibitor, single point]	
CN1CCc2c(sc(NC(=O)c3ccc(S(=O)(=O)N4CCCCCC4)cc3)c2C(N)=O)C1	inconclusive: 18.5 µM [inhibitor, partial curve, poor fit]	
Nc1nc(SCn2nnc3ccccc3c2=O)n[nH]1	inactive	
Cc1ccc(-n2c(SCC(=O)Nc3cccc(S(N)(=O)=O)c3)nc3ccccc32)cc1	inactive	
COc1ccc(C(=O)CSc2nc(C)cc(=O)[nH]2)cc1	inconclusive: 1.47 µM [inhibitor, full curve]	
CCOP(=O)(OCC)c1nc(-c2cccc([N+](=O)[O-])c2)oc1N1CCCCC1	inconclusive: 11.7 µM [inhibitor, single point]	
Cc1nn(-c2ccccc2)c(C)c1NC(=O)COC(=O)Cc1cccc(C(F)(F)F)c1	inactive	
COc1ccc(/C=N\NC(=O)c2ccccc2[N+](=O)[O-])cc1COc1c(F)c(F)c(F)c(F)c1F	inactive	
Cc1ccc(S(=O)(=O)N2CCC(C(=O)OC(C)C(=O)NC3CCCCC3C)CC2)cc1 (stereo not given)	inconclusive: 18.5 µM [inhibitor, single point]	
COc1ccc(/C=N/Nc2nc(C)nc(N)n2)cc1	inconclusive: 18.5 µM [inhibitor, single point]	
C/C(=N\NC(=O)c1cccc2ccccc12)c1cccnc1	inactive	
O=C(COc1ccccc1Cl)NC(=S)Nc1cccc(NC(=O)c2ccccc2Cl)c1	inactive	
COc1ccc(OCC(=O)N2CCC(Cc3ccccc3)CC2)cc1	inconclusive: 7.38 µM [inhibitor, partial curve]	
O=C(CN1C(=O)COc2ccccc21)c1ccc(Cl)cc1	active: 10.4 µM	
O=c1[nH]c(=O)n(Cc2ccco2)c(O)c1C=NC1CCN(Cc2ccccc2)CC1	inactive	
Cc1onc(-c2ccccc2)c1C(=O)OCCOc1ccccc1F	inactive	
COc1ccc(CC(=O)OCC(=O)NCCc2ccccc2)cc1OC	inconclusive: 8.28 µM [inhibitor, single point]	
Cc1noc(C)c1COc1ccc(C(=O)OCC(=O)Nc2ccc3c(c2)OCO3)cc1	inactive	
Cc1ccc(C(=O)N/C(=C\c2ccccc2)C(=O)OCc2ccccc2)cc1	inactive	
CN(C)C1(c2nnnn2-c2ccc(Cl)cc2)CCCCC1	inconclusive: 18.5 µM [inhibitor, single point]	

At a glance, part of the list above:
SMILES	Potency	activity change, negative = inhibition
Cc1ccccc1C(=O)Nc1c2c(nc3ccccc13)CCCC2	inconclusive: 16.5 µM [inhibitor, single point]	
CN1CCc2c(sc(NC(=O)c3ccc(S(=O)(=O)N4CCCCCC4)cc3)c2C(N)=O)C1	inconclusive: 18.5 µM [inhibitor, partial curve, poor fit]	
Nc1nc(SCn2nnc3ccccc3c2=O)n[nH]1	inactive	
Cc1ccc(-n2c(SCC(=O)Nc3cccc(S(N)(=O)=O)c3)nc3ccccc32)cc1	inactive	
